From paper PMC8249419
These are yes or no findings as the source states them, for the method shown. In cells and extracts the contact can be indirect. Some results given as binding are weak or reduced against the parent protein; the word gives no strength.

By UniProt entry, the sequences of proteins in these tests, tags left out. Where a name states a change or a piece, a line headed by the entry shows the natural chain unless it says otherwise.
UniProt Q96D31: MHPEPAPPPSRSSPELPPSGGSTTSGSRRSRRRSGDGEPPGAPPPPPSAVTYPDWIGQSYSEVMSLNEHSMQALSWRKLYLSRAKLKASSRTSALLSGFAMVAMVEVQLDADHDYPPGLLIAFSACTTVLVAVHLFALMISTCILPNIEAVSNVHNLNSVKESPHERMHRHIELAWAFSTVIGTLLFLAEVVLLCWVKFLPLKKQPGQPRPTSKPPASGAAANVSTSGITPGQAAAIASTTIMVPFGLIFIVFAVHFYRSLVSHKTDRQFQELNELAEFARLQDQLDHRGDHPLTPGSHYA

Assays:
[1] = molecular target: calcium release-activated calcium channel protein 1 (Orai1) (human) (UniProt Q96D31); experiment: condition: only without the femtoSOC laser illumination; FRET or BRET; acceptor-photobleaching FRET microscopy in cells co-transfected with Orai1-CFP and Orai1-YFP, without the femtoSOC laser illumination
[2] = molecular target: calcium release-activated calcium channel protein 1 (Orai1) (human) (UniProt Q96D31); experiment: FRET or BRET; acceptor-photobleaching FRET microscopy in cells co-transfected with Orai1-CFP and Orai1-YFP, after the femtoSOC laser illumination; Orai1-YFP bleached by intense 488-nm laser scanning for 3 s, CFP fluorescence read

calcium release-activated calcium channel protein 1 (Orai1) (from UniProt Q96D31-1 1-301)
binding [1]: no binding
binding [2]: binds
